Data on 37 targets can be found in the supplement of paper PMC6411743.

By UniProt entry, the sequences of proteins in these tests, tags left out. Where a name states a change or a piece, a line headed by the entry shows the natural chain unless it says otherwise.
UniProt Q96EY1: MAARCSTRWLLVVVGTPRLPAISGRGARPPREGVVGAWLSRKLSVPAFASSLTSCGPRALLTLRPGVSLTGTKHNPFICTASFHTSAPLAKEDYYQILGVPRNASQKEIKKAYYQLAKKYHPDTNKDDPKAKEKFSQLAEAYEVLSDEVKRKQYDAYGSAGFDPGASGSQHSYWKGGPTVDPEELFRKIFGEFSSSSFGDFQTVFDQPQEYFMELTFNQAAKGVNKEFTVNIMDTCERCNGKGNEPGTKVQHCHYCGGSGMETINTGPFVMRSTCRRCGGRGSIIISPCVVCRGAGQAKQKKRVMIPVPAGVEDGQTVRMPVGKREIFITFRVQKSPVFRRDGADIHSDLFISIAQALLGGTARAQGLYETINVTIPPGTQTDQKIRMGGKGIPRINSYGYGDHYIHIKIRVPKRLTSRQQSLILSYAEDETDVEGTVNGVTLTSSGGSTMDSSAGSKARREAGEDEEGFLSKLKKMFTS
UniProt Q96BM9: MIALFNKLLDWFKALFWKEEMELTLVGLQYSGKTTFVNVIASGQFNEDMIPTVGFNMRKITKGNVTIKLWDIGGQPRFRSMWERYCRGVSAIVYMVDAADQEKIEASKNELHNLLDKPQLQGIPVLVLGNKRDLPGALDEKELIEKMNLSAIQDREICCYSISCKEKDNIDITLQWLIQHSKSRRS
UniProt Q96ES7: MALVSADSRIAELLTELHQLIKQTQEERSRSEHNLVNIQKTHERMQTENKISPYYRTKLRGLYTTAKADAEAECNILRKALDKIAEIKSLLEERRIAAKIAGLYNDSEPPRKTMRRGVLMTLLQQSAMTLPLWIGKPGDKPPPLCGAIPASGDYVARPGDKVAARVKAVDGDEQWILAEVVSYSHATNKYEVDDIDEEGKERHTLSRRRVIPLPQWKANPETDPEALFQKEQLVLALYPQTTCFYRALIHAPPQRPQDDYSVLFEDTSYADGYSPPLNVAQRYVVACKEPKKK
UniProt Q96JJ7: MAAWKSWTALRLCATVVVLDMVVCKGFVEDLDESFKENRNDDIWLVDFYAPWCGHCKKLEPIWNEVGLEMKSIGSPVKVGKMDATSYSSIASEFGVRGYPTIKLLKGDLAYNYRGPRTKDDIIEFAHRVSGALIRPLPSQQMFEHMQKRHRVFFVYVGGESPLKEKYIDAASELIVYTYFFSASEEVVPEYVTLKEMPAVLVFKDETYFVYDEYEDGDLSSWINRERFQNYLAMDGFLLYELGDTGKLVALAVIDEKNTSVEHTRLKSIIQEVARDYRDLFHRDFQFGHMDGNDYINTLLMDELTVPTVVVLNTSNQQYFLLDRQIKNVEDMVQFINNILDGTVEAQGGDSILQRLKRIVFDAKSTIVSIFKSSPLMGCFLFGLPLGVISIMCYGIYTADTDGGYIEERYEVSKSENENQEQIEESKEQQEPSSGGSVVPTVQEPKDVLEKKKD
UniProt Q96KA5: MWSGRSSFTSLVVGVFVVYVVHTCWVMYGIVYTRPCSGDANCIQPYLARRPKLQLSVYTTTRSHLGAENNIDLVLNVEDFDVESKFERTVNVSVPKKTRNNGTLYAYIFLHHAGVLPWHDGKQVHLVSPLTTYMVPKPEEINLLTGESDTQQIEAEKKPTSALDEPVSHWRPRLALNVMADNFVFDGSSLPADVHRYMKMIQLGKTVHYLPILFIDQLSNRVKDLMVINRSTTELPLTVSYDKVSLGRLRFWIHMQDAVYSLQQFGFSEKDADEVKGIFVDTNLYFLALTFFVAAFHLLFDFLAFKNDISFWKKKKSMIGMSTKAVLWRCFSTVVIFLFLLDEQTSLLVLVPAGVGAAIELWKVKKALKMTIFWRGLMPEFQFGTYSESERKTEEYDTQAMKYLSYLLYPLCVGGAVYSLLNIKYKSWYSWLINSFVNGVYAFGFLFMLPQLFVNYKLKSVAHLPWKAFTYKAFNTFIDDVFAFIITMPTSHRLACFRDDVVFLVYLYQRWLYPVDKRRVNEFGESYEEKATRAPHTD
UniProt Q96DT7: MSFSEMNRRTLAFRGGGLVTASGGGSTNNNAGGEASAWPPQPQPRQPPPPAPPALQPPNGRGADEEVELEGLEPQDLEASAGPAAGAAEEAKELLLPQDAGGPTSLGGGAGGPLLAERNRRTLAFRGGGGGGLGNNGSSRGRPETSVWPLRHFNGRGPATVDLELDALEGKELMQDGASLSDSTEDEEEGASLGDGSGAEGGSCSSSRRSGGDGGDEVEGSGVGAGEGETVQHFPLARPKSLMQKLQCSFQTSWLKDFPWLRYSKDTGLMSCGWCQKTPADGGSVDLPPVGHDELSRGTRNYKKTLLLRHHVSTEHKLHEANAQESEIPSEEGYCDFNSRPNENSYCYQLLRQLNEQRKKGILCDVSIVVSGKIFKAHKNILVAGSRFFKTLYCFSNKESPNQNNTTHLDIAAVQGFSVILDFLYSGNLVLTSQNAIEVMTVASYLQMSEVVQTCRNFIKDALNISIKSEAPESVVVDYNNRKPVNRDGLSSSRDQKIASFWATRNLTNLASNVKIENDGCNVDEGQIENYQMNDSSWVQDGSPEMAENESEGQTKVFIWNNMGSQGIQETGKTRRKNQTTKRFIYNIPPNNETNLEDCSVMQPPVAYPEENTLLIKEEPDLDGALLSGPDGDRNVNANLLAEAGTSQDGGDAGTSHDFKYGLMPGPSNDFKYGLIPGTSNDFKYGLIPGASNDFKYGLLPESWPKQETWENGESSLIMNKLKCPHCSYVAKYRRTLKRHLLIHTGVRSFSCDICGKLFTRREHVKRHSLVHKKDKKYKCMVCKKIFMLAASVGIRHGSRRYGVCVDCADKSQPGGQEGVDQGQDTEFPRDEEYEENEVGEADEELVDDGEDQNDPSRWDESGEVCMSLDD
UniProt Q96Q11: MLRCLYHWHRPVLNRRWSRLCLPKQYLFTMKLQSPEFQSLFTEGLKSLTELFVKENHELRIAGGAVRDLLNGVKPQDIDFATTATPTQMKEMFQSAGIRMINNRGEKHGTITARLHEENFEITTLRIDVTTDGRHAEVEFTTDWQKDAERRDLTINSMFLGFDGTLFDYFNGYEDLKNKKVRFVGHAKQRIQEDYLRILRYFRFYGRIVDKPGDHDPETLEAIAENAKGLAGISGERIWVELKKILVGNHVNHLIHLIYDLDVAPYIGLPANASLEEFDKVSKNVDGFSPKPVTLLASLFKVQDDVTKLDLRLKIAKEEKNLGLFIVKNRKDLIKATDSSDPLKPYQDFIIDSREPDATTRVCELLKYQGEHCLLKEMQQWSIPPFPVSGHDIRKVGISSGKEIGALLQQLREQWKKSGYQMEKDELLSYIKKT
UniProt Q96MX0: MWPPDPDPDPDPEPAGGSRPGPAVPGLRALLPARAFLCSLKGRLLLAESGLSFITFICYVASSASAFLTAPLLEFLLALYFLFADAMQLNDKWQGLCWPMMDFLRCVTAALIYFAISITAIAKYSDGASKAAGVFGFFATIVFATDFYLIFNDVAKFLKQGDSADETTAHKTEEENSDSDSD
UniProt Q96DP5: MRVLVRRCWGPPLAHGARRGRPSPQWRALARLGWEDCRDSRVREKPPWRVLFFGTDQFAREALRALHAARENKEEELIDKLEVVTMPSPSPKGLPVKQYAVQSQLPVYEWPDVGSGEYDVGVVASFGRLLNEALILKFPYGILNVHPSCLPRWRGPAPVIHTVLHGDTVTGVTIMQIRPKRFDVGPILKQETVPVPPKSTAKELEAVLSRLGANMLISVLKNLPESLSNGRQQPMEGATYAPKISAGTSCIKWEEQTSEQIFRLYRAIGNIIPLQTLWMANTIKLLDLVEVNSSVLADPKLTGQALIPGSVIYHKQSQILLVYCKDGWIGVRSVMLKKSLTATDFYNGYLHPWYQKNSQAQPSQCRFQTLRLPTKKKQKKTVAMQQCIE
UniProt Q96GX9: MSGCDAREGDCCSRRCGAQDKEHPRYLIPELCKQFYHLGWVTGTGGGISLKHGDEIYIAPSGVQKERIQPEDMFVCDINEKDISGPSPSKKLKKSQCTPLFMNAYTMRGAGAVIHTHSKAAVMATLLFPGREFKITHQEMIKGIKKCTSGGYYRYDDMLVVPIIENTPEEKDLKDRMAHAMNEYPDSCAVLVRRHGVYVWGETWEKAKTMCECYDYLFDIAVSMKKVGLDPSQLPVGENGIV
UniProt Q96QG7: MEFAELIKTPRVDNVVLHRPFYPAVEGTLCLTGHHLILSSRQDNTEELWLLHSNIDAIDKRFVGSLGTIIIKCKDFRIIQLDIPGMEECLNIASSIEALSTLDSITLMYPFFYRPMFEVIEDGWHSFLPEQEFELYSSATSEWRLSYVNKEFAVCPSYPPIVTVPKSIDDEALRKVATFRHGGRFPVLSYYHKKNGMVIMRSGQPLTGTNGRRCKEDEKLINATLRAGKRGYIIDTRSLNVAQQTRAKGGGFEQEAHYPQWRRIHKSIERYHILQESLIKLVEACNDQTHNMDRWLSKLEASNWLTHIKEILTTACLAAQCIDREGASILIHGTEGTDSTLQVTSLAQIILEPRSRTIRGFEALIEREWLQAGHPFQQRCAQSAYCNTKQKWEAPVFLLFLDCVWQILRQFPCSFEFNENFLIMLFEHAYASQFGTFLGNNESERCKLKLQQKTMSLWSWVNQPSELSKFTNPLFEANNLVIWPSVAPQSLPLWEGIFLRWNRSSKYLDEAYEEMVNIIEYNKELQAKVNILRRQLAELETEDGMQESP
UniProt Q96S90: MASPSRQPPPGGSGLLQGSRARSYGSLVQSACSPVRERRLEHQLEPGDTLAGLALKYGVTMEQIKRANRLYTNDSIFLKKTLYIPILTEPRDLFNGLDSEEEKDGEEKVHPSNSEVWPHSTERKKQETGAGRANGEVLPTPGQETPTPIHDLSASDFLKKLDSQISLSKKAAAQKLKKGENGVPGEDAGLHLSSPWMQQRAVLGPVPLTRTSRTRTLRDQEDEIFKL
UniProt Q96LA8, whole entry, looked up: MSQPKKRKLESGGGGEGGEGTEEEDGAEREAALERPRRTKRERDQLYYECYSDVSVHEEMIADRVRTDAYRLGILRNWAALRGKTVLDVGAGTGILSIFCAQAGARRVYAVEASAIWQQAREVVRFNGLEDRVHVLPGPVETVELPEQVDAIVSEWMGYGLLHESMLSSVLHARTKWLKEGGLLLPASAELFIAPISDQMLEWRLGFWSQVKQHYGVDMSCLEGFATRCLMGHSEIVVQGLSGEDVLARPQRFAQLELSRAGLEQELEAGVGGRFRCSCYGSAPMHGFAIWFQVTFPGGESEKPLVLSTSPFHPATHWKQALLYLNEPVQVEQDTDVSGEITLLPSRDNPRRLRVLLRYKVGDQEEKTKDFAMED
UniProt Q96HA7: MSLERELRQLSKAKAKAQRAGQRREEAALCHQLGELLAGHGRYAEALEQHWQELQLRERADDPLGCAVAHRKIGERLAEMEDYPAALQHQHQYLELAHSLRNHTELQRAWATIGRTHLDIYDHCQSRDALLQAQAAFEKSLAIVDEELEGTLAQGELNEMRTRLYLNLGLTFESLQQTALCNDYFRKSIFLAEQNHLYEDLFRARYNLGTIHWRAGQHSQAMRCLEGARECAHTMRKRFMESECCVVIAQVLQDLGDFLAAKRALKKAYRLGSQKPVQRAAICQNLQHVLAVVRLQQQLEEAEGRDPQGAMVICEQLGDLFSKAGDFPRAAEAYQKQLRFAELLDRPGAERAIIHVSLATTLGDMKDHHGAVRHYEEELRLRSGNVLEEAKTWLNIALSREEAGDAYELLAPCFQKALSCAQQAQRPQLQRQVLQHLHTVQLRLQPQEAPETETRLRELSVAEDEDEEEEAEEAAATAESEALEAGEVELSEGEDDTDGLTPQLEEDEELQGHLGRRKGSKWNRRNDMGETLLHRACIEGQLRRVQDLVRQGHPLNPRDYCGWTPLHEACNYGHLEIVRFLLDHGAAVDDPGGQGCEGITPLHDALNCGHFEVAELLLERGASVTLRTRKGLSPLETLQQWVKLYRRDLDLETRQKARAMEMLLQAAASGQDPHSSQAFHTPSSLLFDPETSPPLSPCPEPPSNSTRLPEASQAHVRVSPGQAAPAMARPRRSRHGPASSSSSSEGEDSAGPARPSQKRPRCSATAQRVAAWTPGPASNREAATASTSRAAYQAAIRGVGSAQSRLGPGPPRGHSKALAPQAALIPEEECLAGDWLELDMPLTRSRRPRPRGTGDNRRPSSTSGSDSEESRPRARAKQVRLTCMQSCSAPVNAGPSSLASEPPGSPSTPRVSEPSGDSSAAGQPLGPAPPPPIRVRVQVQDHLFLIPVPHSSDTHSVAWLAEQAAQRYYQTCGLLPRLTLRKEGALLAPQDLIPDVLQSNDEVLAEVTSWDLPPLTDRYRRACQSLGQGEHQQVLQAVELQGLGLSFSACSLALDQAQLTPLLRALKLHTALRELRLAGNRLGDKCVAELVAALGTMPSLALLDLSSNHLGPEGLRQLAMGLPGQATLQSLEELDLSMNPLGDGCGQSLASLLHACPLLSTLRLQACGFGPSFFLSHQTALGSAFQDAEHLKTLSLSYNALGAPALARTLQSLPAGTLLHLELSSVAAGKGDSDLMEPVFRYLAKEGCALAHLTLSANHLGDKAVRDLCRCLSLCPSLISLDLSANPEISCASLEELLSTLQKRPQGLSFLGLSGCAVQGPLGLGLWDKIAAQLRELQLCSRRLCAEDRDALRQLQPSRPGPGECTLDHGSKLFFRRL

± gives the standard deviation of the averaged measurements. This is a selection; strong and weak results do not stand in their true shares. Most entries show no effect beyond the scatter of the controls.

Compound in one assay: Nc1ncnc2c1ncn2[C@@H]1O[C@H](COP(=O)(O)OP(=O)(O)OP(=O)(O)O)[C@@H](O)[C@H]1O [adenosine triphosphate]
The assay can be described thus: NP40-soluble protein abundance relative to vehicle (solubility fold change) (ratio); higher = more soluble protein in presence of ATP. To be noted: concentration: 0.1mM. A digest of the protocol: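 Jurkat crude lysate prepared with a Dounce homogeniser was treated at eight concentrations spanning 0.1 to 10 mM, 10 min at room temperature then 3 min at 37 °C. Solubilisation with 0.8% NP40 and benzonase and ultracentrifugation preceded TMT labelling of the supernatant for LC-MS/MS. Fold change against the detergent-processed vehicle was determined per replicate from vsn-normalised intensities, across three independent experiments.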
For the target ZFP91 (UniProt Q96JP5), the NP40-soluble protein abundance came out at 1.06 ± 0.095. In the case of UniProt Q96EY1 and related entries, the NP40-soluble protein abundance was 0.967 ± 0.057.

Regarding UniProt Q96GM5 and related entries, the NP40-soluble protein abundance amounted to 0.9946 ± 0.0057.

For UniProt Q96FJ2, the NP40-soluble protein abundance came out at 0.889 ± 0.12.

As for WDR89 (UniProt Q96FK6), the NP40-soluble protein abundance was 1.1 ± 0.074. Take IPO9 (UniProt Q96P70): the NP40-soluble protein abundance worked out at 0.972 ± 0.019. Take ARL8A (UniProt Q96BM9): the NP40-soluble protein abundance worked out at 1.06 ± 0.11. For the target UniProt Q96ST2 and related entries, the NP40-soluble protein abundance was 0.9663 ± 0.0096. Regarding UniProt Q96P48 and related entries, the NP40-soluble protein abundance was determined as 1.07 ± 0.053.

With MRPS24 (UniProt Q96EL2), the NP40-soluble protein abundance worked out at 0.983 ± 0.081.

As to UniProt Q96ES7, the NP40-soluble protein abundance came to 0.949 ± 0.073.

The same assay, now with this note: concentration: 0.5mM.
Take UniProt Q96NC0: the NP40-soluble protein abundance stood at 1.03 ± 0.027.

Turning to UniProt Q96JJ7, the NP40-soluble protein abundance was 0.995 ± 0.016. Take UniProt Q96KA5 and related entries: the NP40-soluble protein abundance worked out at 1 ± 0.066.

For the target ZBTB10 (UniProt Q96DT7), the NP40-soluble protein abundance came to 1.05 ± 0.065. In the case of NSL1 (UniProt Q96IY1), the NP40-soluble protein abundance amounted to 0.979 ± 0.047.

For SCLT1 (UniProt Q96NL6), the NP40-soluble protein abundance stood at 0.977 ± 0.099.

As for “UniProt Q96Q05-3|Q96Q05 and related entries”, the NP40-soluble protein abundance was found to be 0.991 ± 0.037. For the target UniProt Q96IZ7 and related entries, the NP40-soluble protein abundance is 1.44 ± 0.092. For RAB39B (UniProt Q96DA2), the NP40-soluble protein abundance was 1.08 ± 0.15.

As to “UniProt Q96Q89-3|Q96Q89 and related entries”, the NP40-soluble protein abundance stood at 1.04 ± 0.035. Regarding UniProt Q96Q11 and related entries, the NP40-soluble protein abundance worked out at 1.05 ± 0.063. Consider UniProt Q96MX0 and related entries, for which the NP40-soluble protein abundance was determined as 0.845 ± 0.2. Still for that read-out and setting: as for UniProt Q96CS2, the figure is 0.89 ± 0.15; as for UniProt Q96EP0 and related entries, 0.982 ± 0.039; as for MTFMT (UniProt Q96DP5), 1.2 ± 0.074. As for UniProt Q96IQ9-2|Q96IQ9, the NP40-soluble protein abundance is 0.954 ± 0.017. In the case of NUDCD1 (UniProt Q96RS6), the NP40-soluble protein abundance stood at 1.06 ± 0.052. Still for that read-out and setting: the figure for PTCD3 (UniProt Q96EY7) is 0.972 ± 0.098. Turning to UniProt Q96BT7 and related entries, the NP40-soluble protein abundance worked out at 1.09 ± 0.057. As for UniProt Q96GX9 and related entries, the NP40-soluble protein abundance came out at 1.02 ± 0.05.

As for UniProt Q96QG7 and related entries, the NP40-soluble protein abundance is 1.1 ± 0.072. For LYSMD1 (UniProt Q96S90), the NP40-soluble protein abundance was determined as 0.992 ± 0.023. In the case of PRMT6 (UniProt Q96LA8), the NP40-soluble protein abundance came out at 1 ± 0.017. For the target ADO (UniProt Q96SZ5), the NP40-soluble protein abundance amounted to 0.975 ± 0.062. UniProt Q96HA7 and related entries: the NP40-soluble protein abundance turned out to be 0.986 ± 0.021. Regarding REEP6 (UniProt Q96HR9), the NP40-soluble protein abundance stood at 0.951 ± 0.087. Regarding ZFP91 (UniProt Q96JP5), the NP40-soluble protein abundance came to 0.988 ± 0.026. Still for that read-out and setting: the figure for UniProt Q96EY1 and related entries is 1.03 ± 0.085; for UniProt Q96GM5 and related entries it is 1.05 ± 0.034. The same measure, in the same setting: as for UniProt Q96FJ2, the figure is 0.896 ± 0.14; as for WDR89 (UniProt Q96FK6), 1.11 ± 0.057. Same read-out and setting: the figure for IPO9 (UniProt Q96P70) is 0.993 ± 0.034; for ARL8A (UniProt Q96BM9) it is 1.01 ± 0.028. For the target UniProt Q96ST2 and related entries, the NP40-soluble protein abundance is 0.95 ± 0.063. As for UniProt Q96P48 and related entries, the NP40-soluble protein abundance was found to be 1.05 ± 0.056. For MRPS24 (UniProt Q96EL2), the NP40-soluble protein abundance came out at 1 ± 0.057. Regarding UniProt Q96ES7, the NP40-soluble protein abundance amounted to 0.964 ± 0.099.
